Binding data for 3 substances are collected here from publication PMC11300717.

Amino acid sequences for entries named in this document (tags omitted).
UniProt P14618: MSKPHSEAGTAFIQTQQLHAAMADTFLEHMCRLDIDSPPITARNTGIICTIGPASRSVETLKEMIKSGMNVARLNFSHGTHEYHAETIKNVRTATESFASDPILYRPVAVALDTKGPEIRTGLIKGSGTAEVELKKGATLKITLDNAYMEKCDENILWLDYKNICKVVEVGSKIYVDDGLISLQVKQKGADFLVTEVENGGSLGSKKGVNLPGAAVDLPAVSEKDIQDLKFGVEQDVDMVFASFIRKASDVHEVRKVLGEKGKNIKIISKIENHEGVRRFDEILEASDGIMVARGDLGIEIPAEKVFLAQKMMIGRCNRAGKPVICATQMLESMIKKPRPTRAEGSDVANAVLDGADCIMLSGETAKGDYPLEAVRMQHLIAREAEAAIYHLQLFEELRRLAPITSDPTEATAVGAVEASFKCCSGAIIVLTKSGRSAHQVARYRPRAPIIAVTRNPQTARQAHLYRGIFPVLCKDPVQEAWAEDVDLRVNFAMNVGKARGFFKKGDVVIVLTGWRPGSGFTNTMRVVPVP
UniProt P19474: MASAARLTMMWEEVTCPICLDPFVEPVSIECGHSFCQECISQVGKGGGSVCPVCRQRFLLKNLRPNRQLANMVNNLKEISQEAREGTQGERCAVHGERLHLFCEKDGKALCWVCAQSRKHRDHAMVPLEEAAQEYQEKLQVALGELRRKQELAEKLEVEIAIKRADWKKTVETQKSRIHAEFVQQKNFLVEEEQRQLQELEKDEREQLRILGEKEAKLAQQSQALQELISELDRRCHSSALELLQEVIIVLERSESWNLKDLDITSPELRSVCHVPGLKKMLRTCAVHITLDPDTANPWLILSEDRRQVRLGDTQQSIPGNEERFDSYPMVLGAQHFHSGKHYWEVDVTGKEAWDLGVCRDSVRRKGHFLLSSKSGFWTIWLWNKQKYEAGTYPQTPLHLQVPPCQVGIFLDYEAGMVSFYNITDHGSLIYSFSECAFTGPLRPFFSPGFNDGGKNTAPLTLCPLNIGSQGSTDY

No constants are given. Whether binding was seen depends on the method and setting. In cells and extracts the contact can be indirect. A yes stands for co-enrichment or nearness to the bait. Other partners may have been found.

The target in this assay is NCAPH (non-SMC condensin I complex subunit H) (human (endogenous in HeLa)) (UniProt Q15003). Nature of the assay: affinity purification with mass spectrometry; HeLa total protein precipitated on agarose beads with anti-NCAPH antibody or IgG; SDS-PAGE, silver staining; the 50-70 kDa region that differed most was excised and analysed by mass spectrometry.
For the substance GPI (from UniProt P06744 1-558), the binding entry is “binds”.

For PKM2 (from UniProt P14618 1-531), the binding entry is given as “binds”. Turning to “Tripartite motif-containing protein 21 (TRIM21) (from UniProt P19474 1-475)”, the binding entry is listed as “binds”.
